{"source": "patent US20090281152A1", "about": "“Indole Compounds Having Affinity to the EP1 Receptor” (priority 2006, published 2009)", "key": {"[1]": {"biological_target": "T1, human EP1 receptor (Homo sapiens, UniProt P34995)", "T1 construct": "expressed in transfected cells; host or cells: CHO-K1 cells, membrane fraction", "T1 sequence (P34995 1-402)": "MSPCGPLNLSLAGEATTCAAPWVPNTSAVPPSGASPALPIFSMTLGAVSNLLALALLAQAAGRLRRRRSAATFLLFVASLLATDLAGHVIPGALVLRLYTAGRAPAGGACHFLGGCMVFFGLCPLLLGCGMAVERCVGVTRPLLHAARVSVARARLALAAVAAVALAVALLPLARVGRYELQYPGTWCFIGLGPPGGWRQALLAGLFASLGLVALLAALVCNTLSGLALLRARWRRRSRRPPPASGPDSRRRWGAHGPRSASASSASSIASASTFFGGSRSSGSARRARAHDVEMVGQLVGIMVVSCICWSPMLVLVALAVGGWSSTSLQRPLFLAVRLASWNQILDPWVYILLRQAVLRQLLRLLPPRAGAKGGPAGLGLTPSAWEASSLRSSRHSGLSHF", "assay": "Binding assay for the human prostanoid EP1 receptor, competition with [3H]-PGE2", "details": "radioligand [3H]-PGE2, averages of a number of experiments"}, "[2]": {"biological_target": "T1, human EP1 receptor", "assay": "human EP1 calcium mobilisation assay (FLIPR, CHO-K1 cells)", "assay_type": "cell-based", "details": "antagonism of PGE2-induced calcium mobilisation, averages of a number of experiments"}, "[3]": {"biological_target": "T1, human EP1 receptor", "assay": "Binding assay for the human EP1 receptor using 3-{2-[5-bromo-2-(2,4-difluoro-benzyloxy)-phenyl]-5-methyl-pyrrol-1-yl}-6-[3H3-methoxy]methoxy-benzoic acid instead of [3H]-PGE2", "details": "radioligand 3-{2-[5-bromo-2-(2,4-difluoro-benzyloxy)-phenyl]-5-methyl-pyrrol-1-yl}-6-[3H3-methoxy]methoxy-benzoic acid; averages of a number of experiments"}}, "note": "Some entries share one result that the patent states for a list of compounds."}
{"smiles": "O=C(O)c1coc(-c2cn(CC3CC3)c3ccc(Cl)cc23)n1", "note": "[Example 1, 2-[5-Chloro-1-(cyclopropylmethyl)-1H-indol-3-yl]-1,3-oxazole-4-carboxylic acid]", "values": [{"measurement": "pIC50", "setting": "[1]", "result": "≥ 7"}, {"measurement": "pIC50", "setting": "[1]; listed as example 1", "result": "≥ 6"}, {"measurement": "functional pKi", "setting": "[2]", "result": "≥ 7.0"}]}
{"smiles": "O=C(O)c1coc(-c2cn(C3CCCC3)c3ccc(Cl)cc23)n1", "note": "[Example 2, 2-(5-Chloro-1-cyclopentyl-1H-indol-3-yl)-1,3-oxazole-4-carboxylic acid]", "values": [{"measurement": "pIC50", "setting": "[1]", "result": "≥ 7"}, {"measurement": "pIC50", "setting": "[1]; listed as example 2", "result": "≥ 6"}, {"measurement": "functional pKi", "setting": "[2]", "result": "≥ 7.0"}]}
{"smiles": "C=C(C)Cn1cc(-c2nc(C(=O)O)co2)c2cc(Cl)ccc21", "note": "[Example 3, 2-[5-Chloro-1-(2-methyl-2-propen-1-yl)-1H-indol-3-yl]-1,3-oxazole-4-carboxylic acid]", "values": [{"measurement": "pIC50", "setting": "[1]", "result": "≥ 6"}, {"measurement": "functional pKi", "setting": "[2]", "result": "≥ 7.0"}]}
{"smiles": "CC(C)n1cc(-c2nc(C(=O)O)co2)c2cc(Cl)ccc21", "note": "[Example 4, 2-[5-Chloro-1-(1-methylethyl)-1H-indol-3-yl]-1,3-oxazole-4-carboxylic acid]", "values": [{"measurement": "pIC50", "setting": "[1]", "result": "≥ 6"}]}
{"smiles": "CCC(CC)Cn1cc(-c2nc(C(=O)O)co2)c2cc(Cl)ccc21", "note": "[Example 5, 2-[5-Chloro-1-(2-ethylbutyl)-1H-indol-3-yl]-1,3-oxazole-4-carboxylic acid]", "values": [{"measurement": "pIC50", "setting": "[1]", "result": "≥ 6"}, {"measurement": "functional pKi", "setting": "[2]", "result": "≥ 7.0"}]}
{"smiles": "O=C(O)c1coc(-c2cn(CC3CCCCC3)c3ccc(Cl)cc23)n1", "note": "[Example 6, 2-[5-Chloro-1-(cyclohexylmethyl)-1H-indol-3-yl]-1,3-oxazole-4-carboxylic acid]", "values": [{"measurement": "pIC50", "setting": "[1]", "result": "≥ 6"}, {"measurement": "functional pKi", "setting": "[2]", "result": "≥ 7.0"}]}
{"smiles": "CC(C)Cn1cc(-c2nc(C(=O)O)cs2)c2cc(Cl)ccc21", "note": "[Example 7, 2-[5-Chloro-1-(2-methylpropyl)-1H-indol-3-yl]-1,3-thiazole-4-carboxylic acid]", "values": [{"measurement": "pIC50", "setting": "[1]", "result": "≥ 7"}, {"measurement": "pIC50", "setting": "[1]; listed as example 7", "result": "≥ 6"}, {"measurement": "functional pKi", "setting": "[2]", "result": "≥ 7.0"}]}
{"smiles": "CC(C)Cn1cc(-c2nc(C(=O)O)co2)c2cc(Cl)ccc21", "note": "[Example 8, 2-[5-Chloro-1-(2-methylpropyl)-1H-indol-3-yl]-1,3-oxazole-4-carboxylic acid]", "values": [{"measurement": "pIC50", "setting": "[1]", "result": "≥ 7"}, {"measurement": "pIC50", "setting": "[1]; listed as example 8", "result": "≥ 6"}, {"measurement": "functional pKi", "setting": "[2]", "result": "≥ 7.0"}]}
{"smiles": "Cc1ccc2c(c1)c(-c1nc(C(=O)O)co1)cn2CC(C)C", "note": "[Example 9, 2-[5-Methyl-1-(2-methylpropyl)-1H-indol-3-yl]-1,3-oxazole-4-carboxylic acid]", "values": [{"measurement": "pIC50", "setting": "[1]", "result": "≥ 7"}, {"measurement": "pIC50", "setting": "[1]; listed as example 9", "result": "≥ 6"}, {"measurement": "functional pKi", "setting": "[2]", "result": "≥ 7.0"}]}
{"smiles": "Cc1ccc2c(c1)c(-c1nc(C(=O)NS(=O)(=O)c3ccccc3)co1)cn2CC(C)C", "note": "[Example 10, 2-[5-Methyl-1-(2-methylpropyl)-1H-indol-3-yl]-N-(phenylsulfonyl)-1,3-oxazole-4-carboxamide]", "values": [{"measurement": "pIC50", "setting": "[1]", "result": "≥ 7"}, {"measurement": "pIC50", "setting": "[1]; listed as example 10", "result": "≥ 6"}, {"measurement": "pIC50", "setting": "[3]", "result": "≥ 7"}]}
